Source: PubChem BioAssay AID1224830 (NIAID, 2016)
Shown is one part, drawn at random, of about 18,000 reagents tested. Over the whole deposit, about 2,900 (16%) are marked active. 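Calls are made per well; low scores hint the gene aids the LPS response, high scores that it dampens it.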 Repeated entries: four replicate wells of each siRNA pool.

Purpose: 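Host factors that control LPS-induced TNF expression in human macrophages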 (primary screen)
System: human THP-1 monocytic leukaemia cells, TNF dual-luciferase reporter clone, PMA-differentiated to macrophage-like cells
Reagents: siRNA pool against human genes, 50 nM
Time to read-out: LPS for 4 h, given about 3 days after siRNA transfection
Conditions: bacterial LPS (TLR4 ligand), 10 ng/ml
Read-out: 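TNF firefly reporter luminescence divided by renilla, normalised to the plate median, then turned into a robust z-score for each replicate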
Scale: TNF reporter robust z-score: higher = stronger TNF reporter response to LPS
Active means: 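a well is active when its z-score exceeds 2.8 or falls below -1.5; control wells carry no call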

gene,TNF reporter robust z-score,Outcome
PRAMEF6 (GeneID 440561),-0.77,inactive
PRAMEF6 (GeneID 440561),-0.32,inactive
PRAMEF6 (GeneID 440561),-0.39,inactive
PRAMEF6 (GeneID 440561),-0.26,inactive
SOX18 (GeneID 54345),0.09,inactive
SOX18 (GeneID 54345),-0.17,inactive
SOX18 (GeneID 54345),-0.97,inactive
SOX18 (GeneID 54345),-0.69,inactive
SOHLH1 (GeneID 402381),1.65,inactive
SOHLH1 (GeneID 402381),2.68,inactive
SOHLH1 (GeneID 402381),3.86,active
SOHLH1 (GeneID 402381),2.43,inactive
SRGAP2 (GeneID 23380),-0.49,inactive
SRGAP2 (GeneID 23380),-0.3,inactive
SRGAP2 (GeneID 23380),-1.13,inactive
SRGAP2 (GeneID 23380),1.77,inactive
CRABP2 (GeneID 1382),-0.28,inactive
CRABP2 (GeneID 1382),0.05,inactive
CRABP2 (GeneID 1382),-0.51,inactive
CRABP2 (GeneID 1382),0.42,inactive
UBE2N (GeneID 7334),0.28,inactive
UBE2N (GeneID 7334),-0.29,inactive
UBE2N (GeneID 7334),-0.39,inactive
UBE2N (GeneID 7334),0.18,inactive
BTBD17 (GeneID 388419),0.23,inactive
BTBD17 (GeneID 388419),1.65,inactive
BTBD17 (GeneID 388419),0.01,inactive
BTBD17 (GeneID 388419),0.84,inactive
SLK (GeneID 9748),-0.22,inactive
SLK (GeneID 9748),0.05,inactive
SLK (GeneID 9748),-0.03,inactive
SLK (GeneID 9748),1.07,inactive
RIC1 (GeneID 57589),0.03,inactive
RIC1 (GeneID 57589),-0.88,inactive
RIC1 (GeneID 57589),-0.55,inactive
RIC1 (GeneID 57589),-0.24,inactive
FOXP1 (GeneID 27086),0.24,inactive
FOXP1 (GeneID 27086),1.79,inactive
FOXP1 (GeneID 27086),1.84,inactive
FOXP1 (GeneID 27086),1.54,inactive
HRG (GeneID 3273),-0.75,inactive
HRG (GeneID 3273),-0.5,inactive
HRG (GeneID 3273),-0.57,inactive
HRG (GeneID 3273),-0.61,inactive
RFNG (GeneID 5986),-0.35,inactive
RFNG (GeneID 5986),0.56,inactive
RFNG (GeneID 5986),0.54,inactive
RFNG (GeneID 5986),1.19,inactive
SRA1 (GeneID 10011),-0.12,inactive
SRA1 (GeneID 10011),1.4,inactive
SRA1 (GeneID 10011),0.56,inactive
SRA1 (GeneID 10011),0.69,inactive

Next entries follow.
gene,TNF reporter robust z-score,Outcome
TAGAP (GeneID 117289),0.16,inactive
TAGAP (GeneID 117289),1.38,inactive
TAGAP (GeneID 117289),-0.55,inactive
TAGAP (GeneID 117289),1.17,inactive
ZDHHC11 (GeneID 79844),-0.42,inactive
ZDHHC11 (GeneID 79844),-0.57,inactive
ZDHHC11 (GeneID 79844),-0.12,inactive
ZDHHC11 (GeneID 79844),0.03,inactive
MAFG (GeneID 4097),-1.89,active
MAFG (GeneID 4097),-2.41,active
MAFG (GeneID 4097),-1.61,active
CYB5R5 (GeneID 606495),-0.12,inactive
CYB5R5 (GeneID 606495),1.15,inactive
CYB5R5 (GeneID 606495),0.57,inactive
CYB5R5 (GeneID 606495),0.2,inactive
MAGEE2 (GeneID 139599),1.02,inactive
MAGEE2 (GeneID 139599),0.31,inactive
MAGEE2 (GeneID 139599),0.63,inactive
MCOLN2 (GeneID 255231),-0.49,inactive
MCOLN2 (GeneID 255231),-0.84,inactive
MCOLN2 (GeneID 255231),-0.71,inactive
MCOLN2 (GeneID 255231),-0.5,inactive
CDH10 (GeneID 1008),0.65,inactive
CDH10 (GeneID 1008),0.05,inactive
CDH10 (GeneID 1008),-0.92,inactive
CDH10 (GeneID 1008),0.24,inactive
ST14 (GeneID 6768),-0.02,inactive
ST14 (GeneID 6768),-0.74,inactive
ST14 (GeneID 6768),0.73,inactive
ST14 (GeneID 6768),-0.25,inactive
BTBD16 (GeneID 118663),-0.44,inactive
BTBD16 (GeneID 118663),-0.27,inactive
BTBD16 (GeneID 118663),0.31,inactive
BTBD16 (GeneID 118663),-0.04,inactive
ASGR1 (GeneID 432),-1.75,active
ASGR1 (GeneID 432),-1.47,inactive
ASGR1 (GeneID 432),-1.26,inactive
ASGR1 (GeneID 432),-0.45,inactive
ERBB3 (GeneID 2065),2.8,active
ERBB3 (GeneID 2065),-0.57,inactive
ERBB3 (GeneID 2065),0.94,inactive
ERBB3 (GeneID 2065),0.53,inactive
HTATSF1 (GeneID 27336),-1.07,inactive
HTATSF1 (GeneID 27336),-0.36,inactive
HTATSF1 (GeneID 27336),-0.29,inactive
HTATSF1 (GeneID 27336),-0.4,inactive
TFEB (GeneID 7942),1.62,inactive
TFEB (GeneID 7942),4.06,active
TFEB (GeneID 7942),3.35,active
TFEB (GeneID 7942),1.98,inactive
TNFRSF9 (GeneID 3604),-0.92,inactive
TNFRSF9 (GeneID 3604),0.44,inactive
TNFRSF9 (GeneID 3604),-1.07,inactive
TNFRSF9 (GeneID 3604),-0.64,inactive
MEX3B (GeneID 84206),2.26,inactive
MEX3B (GeneID 84206),1.69,inactive
MEX3B (GeneID 84206),1.15,inactive
MEX3B (GeneID 84206),1.94,inactive
